## Results of single-concentration screens

Measurements from “University of Dundee, Small-Polar-MMV Screening Library” (2021), ChEMBL document CHEMBL3988442.

Each number is a percent effect as filed.
The controls that fix the scale are not given in the record; negative values are as filed.
This is an unselected part of the compounds tested.
Two or more numbers in one place are separate tests of the same structure; such repeats can differ widely.

A: 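Growth of Mycobacterium tuberculosis over 3 days (7H9 medium with glucose and tyloxapol); the read-out is not stated. Concentration: 50 µM. Higher reads as more growth inhibition (inferred: compounds with an IC50 in retests scored well above the rest). About 69,000 compounds were tested under these conditions; 1.1% (about 760) showed 50% or more at least once.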
B: 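Phenotypic screen: M. tuberculosis growth, cholesterol and DPPC medium, 4 days; the read-out is not stated. Compounds at 50 µM. The record gives no direction; compounds that gave an IC50 in retests scored well above the rest, so higher reads as more growth inhibition. Size under these conditions: about 69,000 compounds, about 370 of them at 50% or above in at least one test.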

SMILES,A,B
Cc1ccc(C(=O)N2CCC3(CCC(=O)N(CC(N)=O)C3)CC2)cc1,-28.71%,-17.41%
Cc1nccn1[C@@H]1CC[C@@H](NC(=O)CCCn2cncn2)[C@H]1O,20.85%,4.563% & -13.66%
O=C(NC1CC1)C1CCN(c2cccc(C(F)(F)F)n2)CC1,19.84%,-5.264%
CC(=O)N1C[C@@H](F)[C@@H](OCc2nc3cc(C)c(C)cc3[nH]2)C1,4.071% & -9.127%,-10.87%
[H][C@]12CCN(c3ncccn3)CC[C@@]1([H])S(=O)(=O)N(CCOC)C2,2.977% & -4.346%,-2.976%
O=C(NCC1CC1)C1=NOC2(CCN(Cc3ccc(Cl)c(F)c3)C2)C1 (centres undefined),7.384% & 26.78%,17.12%
COCC(=O)N1CCN(C)CC(Cc2cc(N(C)C)ncn2)C1 (centres undefined),2.229%,-11.01%
COc1cc(C(=O)NS(=O)(=O)c2cncc(Br)c2)ccc1C,-14.46% & -0.0619%,-1.547%
[H][C@@]12C[C@H](C)O[C@@]1([H])CCN(C(=O)c1ccncn1)C2,-8.079%,-10.72%
O=C(NS(=O)(=O)c1cc(Cl)sc1Cl)c1cccc2c1OCCO2,-12.9% & -6.199%,-32.68%
Cc1c(Br)cnn1CCC(=O)N(C)Cc1c(Cl)cnn1C,-18.16% & 1.758%,-0.4091%
Cc1ccc(N2CCN(C(=O)COc3ncccn3)CC2)nn1,-8.275%,1.255%
CN(C)C(CNC(=O)c1nc(N2CCOCC2)ncc1Cl)c1cccs1 (centres undefined),-8.102%,-20.11%
Cc1nc(CNC(=O)c2cc(COc3cccc(F)c3)[nH]n2)n[nH]1,-23.11%,-12.86%
CC(C)Oc1cccc(-c2nc3c([nH]2)CCCNC3=O)c1,-7.096%,-9.937% & 0.5426%
CC(=O)Nc1cc(-c2cccc(F)c2F)n[nH]1,24.01%,-2.657% & 9.718%
O=C(O)C(F)(F)F.[H][C@@]12C[C@H](C(=O)N3CCN(C)CC3)[C@@]([H])(CN(S(=O)(=O)CCC)C1)O2,-16.42%,-23.29%
Fc1ccc(Sc2ccccc2CNC2=NCCN2)cc1.I,16.31% & 33.67%,24.84%
Cc1c(C(C)NC(=O)Nc2ccc(F)cc2F)cnn1C (centres undefined),0.3264%,-8.538%
[H][C@]12CCCCN1CCC[C@H]2COc1ccc2c(c1)OCC2=O,14.01%,20.44%
Cc1nc(CSc2nc(=O)ccn2C(C)C)cs1,15.96%,-3.406%
CCN(C)C(=O)c1ccc(N(C)Cc2cc(-c3cccnc3)no2)nc1,-4.716%,9.545%
O=C(CC1CC1)N1C[C@@H](O)[C@H](N2CCN(c3ccccc3)CC2)C1,15.36%,-5.697% & -9.67%
O=C(c1ccsc1)N1CCC2(CC1)CCN(S(=O)(=O)C1CC1)CC2,10.26%,-9.955%
COCCC(=O)N1CCn2cc(CN3CCN(C)CC3)nc2C1.O=C(O)C(F)(F)F.O=C(O)C(F)(F)F,19.96% & -9.587%,14.62%
CCS(=O)(=O)c1ccccc1C(=O)N1CCCC(n2cccn2)C1 (centres undefined),16.42%,-18.91%
Cc1ccc(C(=O)NCCC2CCN(C)CC2)cc1N(C)S(C)(=O)=O,19.39% & -2.826%,-6.714%
Cc1cc(Cl)ccc1NCc1ccc(C(=O)N(C)C)[nH]1,25.03%,21.38%
CCOC(=O)c1sc2ccsc2c1CNC(=O)C(C)(C)C#N,-9.359%,-10.21%
CCCn1nnnc1CN(c1ccc(N2CCOCC2)cc1)C(C)C,1.147%,2.063%
CNC(=O)N1CCC2(CC1)CNc1ccc(F)cc12.Cl,-4.789% & -13.53%,-13.44%
O=C(O)C(F)(F)F.[H][C@@]12CCN(c3cnccn3)C[C@]1([H])CN(C(=O)C1CCCCC1)C2,6.952%,-7.94% & -4.26%
c1cnc(OCc2nnc3n2CCN(CC2CCOCC2)C3)nc1,6.19%,-2.874%
CN(CC(=O)NCCc1ccccn1)C(=O)c1cccs1,-10.4%,-5.651%
CCCS(=O)(=O)N1CCOC2(CCCN(c3ccc(C)nn3)C2)C1 (centres undefined),15.26% & 3.819%,-0.8714%
CCCS(=O)(=O)N1CCOC2(CCCN(Cc3ccccn3)C2)C1.O=C(O)C(F)(F)F (centres undefined),-14.85%,-7.68%
Cc1cnn(CC(C)NCc2nc(-c3cccs3)no2)c1 (centres undefined),12.32%,-5.059%
CC(C)C(C)N(Cc1ccccn1)Cc1ccco1 (centres undefined),-6.472%,14.37%
[H][C@@]12C[C@H](NC(=O)COC)CN1[C@H](CCC(=O)NC1CC1)CNC2=O,-32.35% & -2.234%,-1.698%
O=C(O)C(F)(F)F.[H][C@@]12CCN(Cc3ccc4ccccc4n3)[C@]1([H])CC[C@@H](C(=O)NC(C)C)O2,21.48% & 25.17%,0.02236%
CCn1nc(C)c(C(=O)Nc2ccc3c(c2)C(C)(C)C(=O)N3C)c1C,-35.16%,-42.26%
CN(C(=O)Cc1ccc(NC(=O)NC2CC2)cc1)c1ccccc1,-8.079%,7.316%
CC(C)(CNC(=O)c1ccco1)NC(=O)OC(C)(C)C,-1.694% & 1.232%,0.8692%
COc1ccc(Br)c(C(=O)N2CCCC(c3nc(C)no3)C2)c1 (centres undefined),0.7208%,10.6%
COc1ccc(F)c(CN(CCCn2ccnc2)Cc2ccc(C)s2)c1.O=C(O)CC(O)(CC(=O)O)C(=O)O,-4.681%,-18.78%
O=C(C1CCCC1)N1CCCC([C@@H]2C[C@H](C(F)F)n3ncnc3N2)C1 (some centres undefined),6.734%,-0.1273% & -10.07%
COc1ccc(C(=O)NC[C@H]2COCc3nc4cc(C)ccc4n32)cc1,32.74% & 16.01%,0.4581%
[H][C@]12CC[C@]([H])(CC(=O)NC1)N2C(=O)CCc1ccsc1,1.221% & 4.978%,2.02%
CCCn1nnnc1COC(=O)C1COc2ccccc2O1 (centres undefined),-0.9851%,8.673%

Some entries from above, unchanged:

SMILES	A	B
CC(=O)Nc1cc(-c2cccc(F)c2F)n[nH]1	24.01%	-2.657% & 9.718%
O=C(c1ccsc1)N1CCC2(CC1)CCN(S(=O)(=O)C1CC1)CC2	10.26%	-9.955%
[H][C@]12CCCCN1CCC[C@H]2COc1ccc2c(c1)OCC2=O	14.01%	20.44%
Cc1ccc(C(=O)NCCC2CCN(C)CC2)cc1N(C)S(C)(=O)=O	19.39% & -2.826%	-6.714%
[H][C@]12CCN(c3ncccn3)CC[C@@]1([H])S(=O)(=O)N(CCOC)C2	2.977% & -4.346%	-2.976%
CCCn1nnnc1CN(c1ccc(N2CCOCC2)cc1)C(C)C	1.147%	2.063%